Reference: patent US20180352845A1, “NUTRITIONAL COMPOSITIONS AND INFANT FORMULAS TO PROMOTE MYELINATION IN THE BRAIN” (NESTEC S.A., priority 2015, published 2018)
For at least one compound, name, drawing or mass did not settle the structure.

Tested on: brain myelination (myelin water fraction)
Test: Cross-sectional correlation analysis (GLM) of infant formula nutrient composition vs brain myelination by mcDESPOT MRI
Assay type: in vivo, human
Details: children up to 5 years fed different infant formulas during infancy; voxel-wise correlations, p<0.05 corrected; inter-variable correlation threshold 0.9
Method: MRI brain scans of infants and children between 0 and 5 years were acquired using a white matter imaging technique. This technique provides a quantitative measure, the Myelin Water Fraction (MWF), which is a surrogate marker of myelin content. When mapped as a function of time across early childhood, myelination trajectories can be generated.
Infant formula composition: six infant formulas fed to infants participating in study were analyzed for their composition/level of myelin-relevant nutrients.
Infants included in this study were drawn from a larger longitudinal study of normal brain and behavioral development: the Brown university Assessment of Myelination and Behavior Across Maturation (BAMBAM). To focus on neurotypical development, children with known potential risk factors for learning, neurologic, or psychiatric disorders were specifically excluded during recruitment and enrollment. […]
Each infant was scanned using the mcDESPOT (multicomponent Driven Equilibrium Single Pulse Observation of T1 and T2) white matter imaging technique Deoni et al. (Magn. Reson. Med. 2008, 60:1372-1387), which provides a quantitative measure of the myelin water fraction (MWF) at each imaging point throughout the brain. […]

Compound: CC/C=C\C/C=C\C/C=C\C/C=C\C/C=C\C/C=C\CCC(=O)O [DHA, docosahexaenoic acid]
- nutritional drivers for myelination indicated by the final general linear model: identified drivers
